Measured values taken from PubChem BioAssay AID540256 (National Center for Advancing Translational Sciences (NCATS), 2011).
About 3,700 (1.2%) of roughly 300,000 compounds were called active. The inconclusive results got no clear call from the source; some entries with a clear call stand among them for comparison. Calls come from the whole dose curve; tested in HEK293 cells. Where the call is inconclusive, the potency comes from a doubtful curve fit.

Experiment: qHTS for Inhibitors of binding or entry into cells for Lassa Virus; note: nearly all actives have a fitted effect of over 50% in size
Settings: Lassa virus pseudotype entry inhibition, cell reporter; activity change, negative = inhibition: at 37.9 µM (top of the series) unless noted
% is set by controls: 0 for no effect and ±100 for the full control effect; potency is the fitted concentration of half-maximal effect.

| Structure (SMILES) | Potency | activity change, negative = inhibition |
| --- | --- | --- |
| COc1ccccc1/C=C\C=N\n1c(C2CCCCC2)n[nH]c1=S | inconclusive: 14.6 µM [inhibitor, partial curve] |  |
| COc1ccc(CC(NC(C)=O)C(=O)NC2CCN(S(=O)(=O)c3ccc(NC(C)=O)cc3)CC2)cc1 (stereo unspecified) |  | inactive: 20.5% [at 46.1 µM] |
| COc1ccccc1C(=O)NC(=O)COC(=O)CNC(=O)c1ccc(Cl)cc1Cl | inconclusive: 4.47 µM [inhibitor, full curve] |  |
| COc1ccc(-c2onc(C)c2-c2ccc3c(c2)OCCO3)c(O)c1 | inconclusive: 3.16 µM [inhibitor, full curve] |  |
| COc1ccc(CCC(C)NCCc2ccccc2)cc1 (stereo unspecified) |  | inactive: -28.8% |
| O=C(NCCN1CCOCC1)c1sc2cc(Cl)ccc2c1Cl | inconclusive: 0.501 µM [inhibitor, single point] |  |
| Cc1ccc(S(=O)(=O)Nc2ccccc2CNc2ccc(Br)cn2)cc1 |  | inactive: -17.4% |
| CC(=O)NC(c1cccc([N+](=O)[O-])c1)c1ccc2cccnc2c1O (stereo unspecified) | inconclusive: 7.08 µM [inhibitor, partial curve, poor fit] |  |
| COc1cc(NC(=O)CSc2nc(-c3ccc(C(C)C)cc3)no2)cc(OC)c1 | inconclusive: 1.26 µM [activator, full curve] |  |
| COc1ccc(C(=O)N(Cc2ccc(N(C)C)cc2)CC2CCCO2)cc1 (stereo unspecified) | inconclusive: 7.94 µM [inhibitor, partial curve] |  |
| COc1ccc(S(=O)(=O)N2CCc3ccccc32)cc1C(=O)Nc1cccnc1 |  | inactive: -3.02% |
| O=S(=O)(NCc1ccccc1F)c1cccc(S(=O)(=O)N2CCOCC2)c1 |  | inactive: -5.75% |
| Cc1cc(C)[n+](-c2ccc(Oc3ccccc3)c(S(=O)(=O)[O-])c2)[nH]1 | inconclusive: 12.6 µM [inhibitor, single point] |  |
| CN(C)C=NC(=O)c1ccc(N2CCN(c3ncc(C(F)(F)F)cc3Cl)CC2)cc1 | inconclusive: 35.5 µM [inhibitor, single point] |  |
| CS(=O)(=O)N1CCN(c2ccc(Cl)cc2[N+](=O)[O-])CC1 | inconclusive: 35.5 µM [activator, partial curve, poor fit] |  |
| Cc1cccn2c(=O)c3cc(C(=O)NC4CCCC4)c(=N)n(CC4CCCO4)c3nc12 (stereo unspecified) |  | inactive: 17.2% |
| CCOC(=O)C1=C(CC)Nc2ccccc2N/C1=N\S(=O)(=O)c1ccc2ccccc2c1 | inconclusive: 6.31 µM [inhibitor, partial curve, poor fit] |  |
| Cc1ccc(CCNC(=O)c2nnn(-c3cccc(C)c3)c2N)cc1 | inconclusive: 13 µM [inhibitor, partial curve, poor fit] |  |
| Nc1nnc(N2CCc3ccccc32)s1 | inconclusive: 25.9 µM [activator, single point] |  |
| COc1ccc(-c2ccc3c(N)c(C(=O)NCc4ccc(C)cc4)sc3n2)cc1 | inconclusive: 1 µM [inhibitor, full curve, poor fit] |  |
| COc1cccc(OC)c1C(=O)OCC(=O)N1CCC(Cc2ccccc2)CC1 |  | inactive: -5.56% [at 46.1 µM] |
| CCc1ccc(C(=O)C(C)OC(=O)Cn2cnc3c2c(=O)n(C)c(=O)n3C)cc1 (stereo unspecified) |  | inactive: 18.1% |
| Cc1ccc(Cl)cc1NC(=O)CCc1c(C)nc2c3cccnc3nn2c1C |  | inactive: -12.3% [at 46.1 µM] |

Reprinted from the listing, 4 compounds:

| Structure (SMILES) | Potency | activity change, negative = inhibition |
| --- | --- | --- |
| COc1ccc(CCC(C)NCCc2ccccc2)cc1 (stereo unspecified) |  | inactive: -28.8% |
| O=C(NCCN1CCOCC1)c1sc2cc(Cl)ccc2c1Cl | inconclusive: 0.501 µM [inhibitor, single point] |  |
| Cc1ccc(S(=O)(=O)Nc2ccccc2CNc2ccc(Br)cn2)cc1 |  | inactive: -17.4% |
| CC(=O)NC(c1cccc([N+](=O)[O-])c1)c1ccc2cccnc2c1O (stereo unspecified) | inconclusive: 7.08 µM [inhibitor, partial curve, poor fit] |  |

Next entries follow:

| Structure (SMILES) | Potency | activity change, negative = inhibition |
| --- | --- | --- |
| CSc1ccc(Cl)c(C(=O)NCC(C)C)c1 | inconclusive: 6.51 µM [inhibitor, single point] |  |
| Cc1ccc(SCC(=O)NCc2ccco2)cc1 |  | inactive: 15.6% |
| COc1ccc(CNC(=O)COC(=O)CCC2CCCCC2)cc1 |  | inactive: 1.21% |
| CCCOc1ccc(C2c3c(oc4ccccc4c3=O)C(=O)N2CCCN2CCOCC2)cc1 (stereo unspecified) |  | inactive: -22.2% |
| CC(OC(=O)COc1ccccc1Cc1ccccc1)C(=O)N(C)c1ccccc1 (stereo unspecified) | inconclusive: 35.5 µM [inhibitor, single point] |  |
| CC(C(=O)Nc1ccccc1-c1ccccc1)N(C)Cc1nc2ccccc2c(=O)[nH]1 (stereo unspecified) | inconclusive: 3.98 µM [inhibitor, partial curve, poor fit] |  |
| NNc1nc(-c2ccccc2)c2ccccc2n1 | inconclusive: 1.26 µM [activator, full curve, poor fit] |  |
| OCCC1CN(Cc2ccc3nonc3c2)CCN1Cc1ccsc1 (stereo unspecified) |  | inactive: 6.72% |
| O=C(/C=C/c1cccs1)Nc1sc2c(c1C(=O)O)CCCC2 | inconclusive: 14.1 µM [inhibitor, partial curve, poor fit] |  |
| O=C(N/N=C(\Cc1ncc[nH]1)c1ccccc1)c1cccnc1 | inconclusive: 15.8 µM [inhibitor, single point] |  |
| COc1ccc(CCNc2nc(C)cc(C)n2)cc1OC | inconclusive: 25.1 µM [inhibitor, single point] |  |
| C/C(CC(=O)Nc1ccc(N(C)C)cc1)=N\NC(=O)Cc1csc(N)n1 |  | inactive: 3.65% |
| COc1cc(/C=N/NC(=O)c2ccc(F)cc2)ccc1OC(=O)c1ccco1 | inconclusive: 25.9 µM [activator, single point] |  |
| O=C(Nc1ncccc1O)c1cc2ccccc2o1 | active: 1.26 µM |  |
| CCOc1ccccc1C(=O)NC(C(=O)N(C)Cc1ccc2c(c1)OCO2)C(C)C (stereo unspecified) | inconclusive: 12.6 µM [inhibitor, single point] |  |
| CC1CCCC(C)N1C(=O)COC(=O)/C=C/c1ccco1 (stereo unspecified) | inconclusive: 2.51 µM [activator, full curve] |  |
| Cn1cnc([N+](=O)[O-])c1S(=O)(=O)Oc1ccc(Cl)cc1 | inconclusive: 22.4 µM [inhibitor, single point] |  |
| CC1(C)CC(=O)C(C(C2=C(O)CC(C)(C)CC2=O)c2ccco2)C(=O)C1 (stereo unspecified) |  | inactive: 6.42% |
| Cc1cc(Cl)ccc1NC(=O)CN1C(=O)COc2ccc(S(=O)(=O)Nc3ccccc3)cc21 |  | inactive: -22.6% [at 46.1 µM] |
| CCCCCCCCC/C(=N\O)c1ccccn1 | inconclusive: 35.5 µM [inhibitor, partial curve, poor fit] |  |
| Cc1ccc(CNc2nc3ccccc3s2)s1 | active: 6.31 µM |  |
| c1ccc(-c2nnc(N3CCOCC3)c3ccccc23)cc1 | inconclusive: 12.6 µM [inhibitor, partial curve, poor fit] |  |
| O=C(N/N=C/c1ccccc1Cl)c1n[nH]c2c1CCCC2 | inconclusive: 1.3 µM [inhibitor, full curve, poor fit] |  |
